PubChem BioAssay AID1159578, Peter MacCallum Cancer Centre – 2015
Aim: 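Knock-downs that alter how fast lymphatic endothelial cells migrate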 (primary screen). Cell system: human lymphatic endothelial cells. Reagent: siRNA pool against human genes, 40 nM. Time to read-out: 48 h after transfection. Measured: 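High-content imaging of dye-stained cells in a scratch assay measures filled wound area and nuclei per well; duplicate means given as ratio to mock and robust z-score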. Reading the numbers: migration robust z-score: higher = faster migration into the scratch; migration relative to mock: higher = more scratch area covered than mock; nuclei per well: higher = more cells in the well. Rule for the call: 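Migration changed when robust z exceeds 2 or falls below -2 and mean nuclei number is at least 3300; otherwise not called changed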. Calls: active = migration changed; inactive = no migration change, or too few cells.
This is one part, drawn at random, of about 18,000 reagents. Of all reagents, about 1,030 (5.7%) got an active call. 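Inactive calls also include pools with fewer than 3300 nuclei, whose migration was not assessed.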 Raw values vary from plate to plate and are shown uncorrected. Entries without a mark were called inactive.

gene symbol	migration robust z-score	migration class with cell-count check	migration relative to mock	nuclei per well, duplicate mean
MAGED1 (GeneID 9500)	1.09	migration z between -2 and 2; enough cells	1.02	5412
GAGE7 (GeneID 2579)	0.02	migration z between -2 and 2; enough cells	0.88	4721
DRG2 (GeneID 1819)	-0.7	migration z between -2 and 2; enough cells	0.67	4768
PRMT8 (GeneID 56341)	0.02	migration z between -2 and 2; enough cells	0.81	5906
ODF1 (GeneID 4956)	-0.52	migration z between -2 and 2; enough cells	0.75	3558
HPDL (GeneID 84842)	-2.63 (active)	migration z below -2; enough cells	0.2	6344
RABGEF1 (GeneID 27342)	-0.08	migration z between -2 and 2; enough cells	0.87	5745
GUCA2B (GeneID 2981)	0.03	migration z between -2 and 2; enough cells	0.81	7420
ZNF239 (GeneID 8187)	2.09 (active)	migration z above 2; enough cells	1.43	7039
CCK (GeneID 885)	-0.18	migration z between -2 and 2; enough cells	0.84	5746
PDRG1 (GeneID 81572)	1.72	migration z between -2 and 2; enough cells	1.34	4850
LANCL3 (GeneID 347404)	0.14	migration z between -2 and 2; enough cells	0.92	6160
UBE2C (GeneID 11065)	1.87	migration z between -2 and 2; enough cells	1.16	5220
UBALD2 (GeneID 283991)	-0.69	migration z between -2 and 2; enough cells	0.71	6051
FLT3 (GeneID 2322)	-2.52 (active)	migration z below -2; enough cells	0.32	3382
NPRL2 (GeneID 10641)	-0.02	migration z between -2 and 2; enough cells	0.88	6215
BBLN (GeneID 79095)	0.58	migration z between -2 and 2; enough cells	1.04	5832
KBTBD3 (GeneID 143879)	0.67	migration z between -2 and 2; enough cells	1.06	5202
RBM23 (GeneID 55147)	1.04	migration z between -2 and 2; enough cells	1.15	7266
UNC5D (GeneID 137970)	-0.3	migration z between -2 and 2; enough cells	0.82	6515
ZNF577 (GeneID 84765)	-1.01	migration z between -2 and 2; enough cells	0.62	5426
ANKRD54 (GeneID 129138)	-0.68	migration z between -2 and 2; enough cells	0.71	6453
CMTR1 (GeneID 23070)	0.85	migration z between -2 and 2; enough cells	1.1	6116
RTTN (GeneID 25914)	-0.02	migration z between -2 and 2; enough cells	0.88	6082
UBE4A (GeneID 9354)	0.21	migration z between -2 and 2; enough cells	0.84	5358
CHCHD5 (GeneID 84269)	-1.64	migration z between -2 and 2; enough cells	0.46	5624
ZNF846 (GeneID 162993)	1.67	migration z between -2 and 2; enough cells	1.33	5538
SHBG (GeneID 6462)	-1.54	migration z between -2 and 2; enough cells	0.48	6416

No new results follow: an excerpt of the list.
gene symbol	migration robust z-score	migration class with cell-count check	migration relative to mock	nuclei per well, duplicate mean
PDRG1 (GeneID 81572)	1.72	migration z between -2 and 2; enough cells	1.34	4850
LANCL3 (GeneID 347404)	0.14	migration z between -2 and 2; enough cells	0.92	6160
UBE2C (GeneID 11065)	1.87	migration z between -2 and 2; enough cells	1.16	5220
UBALD2 (GeneID 283991)	-0.69	migration z between -2 and 2; enough cells	0.71	6051
FLT3 (GeneID 2322)	-2.52 (active)	migration z below -2; enough cells	0.32	3382
NPRL2 (GeneID 10641)	-0.02	migration z between -2 and 2; enough cells	0.88	6215
BBLN (GeneID 79095)	0.58	migration z between -2 and 2; enough cells	1.04	5832
KBTBD3 (GeneID 143879)	0.67	migration z between -2 and 2; enough cells	1.06	5202

The list goes on.
gene symbol	migration robust z-score	migration class with cell-count check	migration relative to mock	nuclei per well, duplicate mean
OR4C45 (GeneID 403257)	-0.09	migration z between -2 and 2; enough cells	0.86	6435
ITIH2 (GeneID 3698)	-1.03	migration z between -2 and 2; enough cells	0.62	6035
LRIT3 (GeneID 345193)	1.15	migration z between -2 and 2; enough cells	1.19	5485
KCNJ9 (GeneID 3765)	-1.74	migration z between -2 and 2; enough cells	0.47	4622
SIK2 (GeneID 23235)	-0.7	migration z between -2 and 2; enough cells	0.67	5392
HS3ST2 (GeneID 9956)	1.71	migration z between -2 and 2; enough cells	1.13	6734
HABP2 (GeneID 3026)	-0.05	migration z between -2 and 2; enough cells	0.8	5567
PARD3 (GeneID 56288)	-0.96	migration z between -2 and 2; enough cells	0.64	5675
SYCE1 (GeneID 93426)	0.16	migration z between -2 and 2; enough cells	0.92	6769
OR2T4 (GeneID 127074)	1.14	migration z between -2 and 2; enough cells	1.18	5246
ABHD17C (GeneID 58489)	-0.08	migration z between -2 and 2; enough cells	0.79	4756
ZNF429 (GeneID 353088)	-0.25	migration z between -2 and 2; enough cells	0.82	5842
SLC35G1 (GeneID 159371)	-0.8	migration z between -2 and 2; enough cells	0.68	6376
PARG (GeneID 8505)	-0.88	migration z between -2 and 2; enough cells	0.64	3576
SLPI (GeneID 6590)	0.8	migration z between -2 and 2; enough cells	0.96	6360
CCDC15 (GeneID 80071)	0.02	migration z between -2 and 2; enough cells	0.9	5964
PHC3 (GeneID 80012)	-1.26	migration z between -2 and 2; enough cells	0.56	5702
RINT1 (GeneID 60561)	0.84	migration z between -2 and 2; enough cells	1.1	5381
ZKSCAN4 (GeneID 387032)	-1.42	migration z between -2 and 2; enough cells	0.51	5606
NEU3 (GeneID 10825)	0.44	migration z between -2 and 2; enough cells	0.89	5242
ACD (GeneID 65057)	0.08	migration z between -2 and 2; enough cells	0.91	5733
RPUSD3 (GeneID 285367)	0.94	migration z between -2 and 2; enough cells	1.13	5040
BBS7 (GeneID 55212)	-2.58 (active)	migration z below -2; enough cells	0.22	4304
DAND5 (GeneID 199699)	-0.52	migration z between -2 and 2; enough cells	0.75	6410
TTN (GeneID 7273)	0.55	migration z between -2 and 2; enough cells	0.91	5310
FAIM (GeneID 55179)	0.9	migration z between -2 and 2; enough cells	1.12	6994
IGF2 (GeneID 3481)	0.34	under 3300 nuclei; migration not judged	0.87	3134
PHLDA1 (GeneID 22822)	-0.22	migration z between -2 and 2; enough cells	0.83	5484
PRKCH (GeneID 5583)	-1.46	migration z between -2 and 2; enough cells	0.52	5290
